This note sets out measurements from the supplement of paper PMC4604168 (melanoma cell lines).

Some of the results follow. Repeats are few or missing, and single values can be far off.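 Cells were imaged in 1,536-well plates, and nuclei stained with an antibody against cleaved PARP were counted against all DNA-stained nuclei to give the apoptosis fraction. Screening doses were chosen to leave most cells alive, and resting and induced cleaved-PARP levels differ strongly between cell lines.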

For this assay, the system named is COLO800. The assay is described as follows: cleaved PARP positive nuclei fraction relative to DMSO control; melanoma cells; higher = more apoptosis. To be noted: library dose: low library concentration; 72 h.
As for `CS(=O)(=O)CCNCc1ccc(-c2ccc3ncnc(Nc4ccc(OCc5cccc(F)c5)c(Cl)c4)c3c2)o1` [lapatinib] + CN(NC(=O)CC(=O)NN(C)C(=S)c1ccccc1)C(=S)c1ccccc1 [STA4783] (first compound 0.8 µM, partner dose 0.006 µM), the “cleaved PARP positive nuclei fraction” value was 45.2%.
The value for `CC(C)C[C@H](NC(=O)[C@H](Cc1ccccc1)NC(=O)c1cnccn1)B(O)O` [Bortezomib] + CO[C@@H]1[C@H](N(C)C(=O)c2ccccc2)C[C@H]2O[C@]1(C)n1c3ccccc3c3c4c(c5c6ccccc6n2c5c31)C(=O)NC4 [Midostaurin] (first compound 0.001 µM, partner dose 0.08 µM) was 94.5%.
With `C[C@@H](Oc1cc(-c2cnn(C3CCNCC3)c2)cnc1N)c1c(Cl)ccc(F)c1Cl` [Crizotinib] + O=C(O)c1ccc(-c2c[nH]c3ncc(-c4ccccc4)cc23)cc1C1CCCC1 [GSK650394] (first compound 0.2 µM, partner dose 0.16 µM) the figure was 154%; with `CS(=O)(=O)CCNCc1ccc(-c2ccc3ncnc(Nc4ccc(OCc5cccc(F)c5)c(Cl)c4)c3c2)o1` [lapatinib] + NC(=O)Nc1cc(-c2cccc(F)c2)sc1C(=O)N[C@H]1CCCNC1 [AZD7762] (first compound 0.8 µM, partner dose 0.02 µM), 70.1%.
For the molecule `CNC(=O)c1cc(Oc2ccc(NC(=O)Nc3ccc(Cl)c(C(F)(F)F)c3)cc2)ccn1` [sorafenib] + NC(=O)Nc1cc(-c2cccc(F)c2)sc1C(=O)N[C@H]1CCCNC1 [AZD7762] (first compound 0.4 µM, partner dose 0.02 µM), the “cleaved PARP positive nuclei fraction” value was 111%.
On to `CN1CCN(c2ccc3nc(-c4c(N)c5c(F)cccc5[nH]c4=O)[nH]c3c2)CC1` [Dovitinib] + NCC(=O)Nc1ccc(-n2nc(C(F)(F)F)cc2-c2ccc3c(ccc4ccccc43)c2)cc1 [OSU03012] (first compound 0.1 µM, partner dose 1 µM), for which the “cleaved PARP positive nuclei fraction” value stood at 116%.
With `C=C(c1ccc(C(=O)O)cc1)c1cc2c(cc1C)C(C)(C)CCC2(C)C` [Bexarotene] + NC(=O)Nc1cc(-c2cccc(F)c2)sc1C(=O)N[C@H]1CCCNC1 [AZD7762] (first compound 2 µM, partner dose 0.02 µM), the “cleaved PARP positive nuclei fraction” value worked out at 115%.
On to `Cn1c(=O)n(-c2ccc(C(C)(C)C#N)cc2)c2c3cc(-c4cnc5ccccc5c4)ccc3ncc21` + Cn1cncc1[C@@](N)(c1ccc(Cl)cc1)c1ccc2c(c1)c(-c1cccc(Cl)c1)cc(=O)n2C [tipifarnib] (first compound 0.004 µM, partner dose 0.01 µM), for which the “cleaved PARP positive nuclei fraction” value amounted to 173%.
Take `C[C@@H](Oc1cc(-c2cnn(C3CCNCC3)c2)cnc1N)c1c(Cl)ccc(F)c1Cl` [Crizotinib] + CN(NC(=O)CC(=O)NN(C)C(=S)c1ccccc1)C(=S)c1ccccc1 [STA4783] (first compound 0.2 µM, partner dose 0.006 µM): the “cleaved PARP positive nuclei fraction” value was 622%.
The value for `CC(C)C[C@H](NC(=O)[C@H](Cc1ccccc1)NC(=O)c1cnccn1)B(O)O` [Bortezomib] + COc1cc2c(Oc3ccc4[nH]c(C)cc4c3F)ncnc2cc1OCCCN1CCCC1 [cediranib] (first compound 0.001 µM, partner dose 0.4 µM) was 44.6%; that for `Cc1cc(Nc2cc(N3CCN(C)CC3)nc(/C=C/c3ccccc3)n2)n[nH]1` + Cc1cc(N2CCOCC2)cc2[nH]c(-c3c(NC[C@@H](O)c4cccc(Cl)c4)cc[nH]c3=O)nc12 [BMS536924] (first compound 0.04 µM, partner dose 0.2 µM) was 123%.
As to `C[C@@H](Oc1cc(-c2cnn(C3CCNCC3)c2)cnc1N)c1c(Cl)ccc(F)c1Cl` [Crizotinib] + CC1(C)NC(=O)N(c2ccc([N+](=O)[O-])c(C(F)(F)F)c2)C1=O [nilutamide] (first compound 0.2 µM, partner dose 1 µM), the “cleaved PARP positive nuclei fraction” value was 162%.
With `Cn1c(=O)n(-c2ccc(C(C)(C)C#N)cc2)c2c3cc(-c4cnc5ccccc5c4)ccc3ncc21` + NC(=O)Nc1cc(-c2cccc(F)c2)sc1C(=O)N[C@H]1CCCNC1 [AZD7762] (first compound 0.004 µM, partner dose 0.02 µM), the “cleaved PARP positive nuclei fraction” value was determined as 149%.
For `CC(C)C[C@H](NC(=O)[C@H](Cc1ccccc1)NC(=O)c1cnccn1)B(O)O` [Bortezomib] + O=C(O)c1ccc(-c2c[nH]c3ncc(-c4ccccc4)cc23)cc1C1CCCC1 [GSK650394] (first compound 0.001 µM, partner dose 0.16 µM), the “cleaved PARP positive nuclei fraction” value was determined as 60.6%.
Take `C[C@@H](Oc1cc(-c2cnn(C3CCNCC3)c2)cnc1N)c1c(Cl)ccc(F)c1Cl` [Crizotinib] + C[C@@H]1CCN(C(=O)CC#N)C[C@@H]1N(C)c1ncnc2[nH]ccc12 [CP690550] (first compound 0.2 µM, partner dose 1 µM): the “cleaved PARP positive nuclei fraction” value came to 100%.
Take `CC(C)C[C@H](NC(=O)[C@H](Cc1ccccc1)NC(=O)c1cnccn1)B(O)O` [Bortezomib] + Cc1cc(N2CCOCC2)cc2[nH]c(-c3c(NC[C@@H](O)c4cccc(Cl)c4)cc[nH]c3=O)nc12 [BMS536924] (first compound 0.001 µM, partner dose 0.2 µM): the “cleaved PARP positive nuclei fraction” value came to 132%.
On to `Nc1ccn([C@@H]2O[C@H](CO)[C@@H](O)C2(F)F)c(=O)n1` [gemcitabine] + CC(C)(C)c1cnc(CSc2cnc(NC(=O)C3CCNCC3)s2)o1 [SNS-032] (first compound 0.0004 µM, partner dose 0.01 µM), for which the “cleaved PARP positive nuclei fraction” value was found to be 303%.
For `CCCS(=O)(=O)Nc1ccc(F)c(C(=O)c2c[nH]c3ncc(Cl)cc23)c1F` + C=CCn1c(=O)c2cnc(Nc3ccc(N4CCN(C)CC4)cc3)nc2n1-c1cccc(C(C)(C)O)n1 [MK1775] (first compound 0.08 µM, partner dose 0.02 µM), the “cleaved PARP positive nuclei fraction” value is 194%.
Turning to `Nc1ccn([C@@H]2O[C@H](CO)[C@@H](O)C2(F)F)c(=O)n1` [gemcitabine] + CC1(C)NC(=O)N(c2ccc([N+](=O)[O-])c(C(F)(F)F)c2)C1=O [nilutamide] (first compound 0.0004 µM, partner dose 1 µM), the “cleaved PARP positive nuclei fraction” value stood at 195%.
For the molecule `CC(C)C[C@H](NC(=O)[C@H](Cc1ccccc1)NC(=O)c1cnccn1)B(O)O` [Bortezomib] + Cc1ccc(NC(=O)c2cccc(N(C)C)c2)cc1NC(=O)c1ccc(O)cc1 [ZM336372] (first compound 0.001 µM, partner dose 2 µM), the “cleaved PARP positive nuclei fraction” value was determined as 96.7%.
With `CCCS(=O)(=O)Nc1ccc(F)c(C(=O)c2c[nH]c3ncc(Cl)cc23)c1F` + CN(NC(=O)CC(=O)NN(C)C(=S)c1ccccc1)C(=S)c1ccccc1 [STA4783] (first compound 0.08 µM, partner dose 0.006 µM) the figure was 118%; with `O=C(O)[C@@H]1[O][Sb](=[O])([O][Sb]2(=[O])[O][C@H]([C@H](O)CO)[C@H](O)[C@H](C(=O)O)[O]2)[O][C@H]([C@H](O)CO)[C@@H]1O` (some centres undefined) [stibogluconate] + C[C@@H]1CCN(C(=O)CC#N)C[C@@H]1N(C)c1ncnc2[nH]ccc12 [CP690550] (first compound 2 µM, partner dose 1 µM), 76.9%.
With `C=C(c1ccc(C(=O)O)cc1)c1cc2c(cc1C)C(C)(C)CCC2(C)C` [Bexarotene] + Cc1ccc(NC(=O)c2cccc(N(C)C)c2)cc1NC(=O)c1ccc(O)cc1 [ZM336372] (first compound 2 µM, partner dose 2 µM) the figure was 72.3%.
Take `Cc1cc(Nc2cc(N3CCN(C)CC3)nc(/C=C/c3ccccc3)n2)n[nH]1` + CO[C@@H]1[C@H](N(C)C(=O)c2ccccc2)C[C@H]2O[C@]1(C)n1c3ccccc3c3c4c(c5c6ccccc6n2c5c31)C(=O)NC4 [Midostaurin] (first compound 0.04 µM, partner dose 0.08 µM): the “cleaved PARP positive nuclei fraction” value came out at 117%.
